Results from patent US8637455B2 (Affinergy, LLC, priority 2007, dated 2014).

Assay: general procedure: Fmoc solid-phase peptide synthesis; Fmoc-PAL-Peg-PS (~0.20 mmol/g); AA/TBTU/HOBt/NMM (1:1:1:2)
Conditions: whole synthesis, analytical reverse phase-HPLC, one disulfide bridge, sequence written open

With “Myr-Ahx-SSCLIDIYGVCHNFDAY-(miniPEG)2-HKKNNPKKKNKTRGSSK” the “final HPLC purity” value was >90%.
